Reference: PMC6470148
These are yes or no findings as the source states them, for the method shown. In cells and extracts the contact can be indirect. Some results given as binding are weak or reduced against the parent protein; the word gives no strength. For some of these results: Where a sequence is shown, tags or fusion partners need not be part of it.

Chains of the proteins cited; added tags and fusions are not shown. Lines headed by an entry give the natural chain unless they say otherwise; changes in a name come on top.
UniProt Q62406: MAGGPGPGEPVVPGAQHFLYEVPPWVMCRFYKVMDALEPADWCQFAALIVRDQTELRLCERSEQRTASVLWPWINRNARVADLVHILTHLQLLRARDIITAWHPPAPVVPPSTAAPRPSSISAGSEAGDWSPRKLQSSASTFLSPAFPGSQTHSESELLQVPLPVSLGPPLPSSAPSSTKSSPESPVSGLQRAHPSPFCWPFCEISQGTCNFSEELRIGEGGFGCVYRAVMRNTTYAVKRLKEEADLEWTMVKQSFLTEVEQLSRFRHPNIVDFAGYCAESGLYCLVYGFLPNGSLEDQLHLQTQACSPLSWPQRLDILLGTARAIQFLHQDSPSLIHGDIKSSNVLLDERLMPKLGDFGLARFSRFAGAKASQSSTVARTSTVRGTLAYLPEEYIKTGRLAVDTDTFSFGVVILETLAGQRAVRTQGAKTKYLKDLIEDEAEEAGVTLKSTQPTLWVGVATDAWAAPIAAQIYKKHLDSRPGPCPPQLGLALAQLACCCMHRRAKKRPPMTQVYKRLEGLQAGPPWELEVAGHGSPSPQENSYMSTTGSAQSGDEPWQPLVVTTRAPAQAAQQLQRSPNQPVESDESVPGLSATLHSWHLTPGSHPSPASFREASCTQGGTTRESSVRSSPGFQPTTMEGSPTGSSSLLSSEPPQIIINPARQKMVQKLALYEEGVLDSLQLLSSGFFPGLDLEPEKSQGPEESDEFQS
UniProt Q9EQK5: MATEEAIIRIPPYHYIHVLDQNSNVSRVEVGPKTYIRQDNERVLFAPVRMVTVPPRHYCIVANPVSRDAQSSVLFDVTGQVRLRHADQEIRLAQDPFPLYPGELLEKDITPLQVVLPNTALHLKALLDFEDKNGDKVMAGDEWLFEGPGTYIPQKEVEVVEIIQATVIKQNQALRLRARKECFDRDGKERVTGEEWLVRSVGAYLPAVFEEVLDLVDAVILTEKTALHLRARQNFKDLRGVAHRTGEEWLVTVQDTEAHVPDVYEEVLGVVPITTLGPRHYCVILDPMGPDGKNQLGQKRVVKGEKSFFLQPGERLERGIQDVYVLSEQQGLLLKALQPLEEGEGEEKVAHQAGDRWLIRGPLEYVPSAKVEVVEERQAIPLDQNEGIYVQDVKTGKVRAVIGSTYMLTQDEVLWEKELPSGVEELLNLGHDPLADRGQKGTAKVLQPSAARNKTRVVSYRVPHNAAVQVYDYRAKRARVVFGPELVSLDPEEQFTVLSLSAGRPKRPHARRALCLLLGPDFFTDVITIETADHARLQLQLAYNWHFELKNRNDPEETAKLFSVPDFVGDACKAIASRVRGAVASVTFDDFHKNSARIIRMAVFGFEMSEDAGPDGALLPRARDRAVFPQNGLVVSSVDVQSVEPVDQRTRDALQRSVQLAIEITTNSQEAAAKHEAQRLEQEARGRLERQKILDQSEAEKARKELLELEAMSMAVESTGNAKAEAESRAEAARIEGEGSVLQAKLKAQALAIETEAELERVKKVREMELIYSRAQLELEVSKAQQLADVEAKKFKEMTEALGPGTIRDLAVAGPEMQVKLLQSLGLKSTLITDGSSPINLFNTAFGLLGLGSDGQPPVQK

Key:
[1] = molecular target: T1, HA-tagged TRAF6 (UniProt P70196); assay: co-IP; HEK293T cells transfected with tagged constructs; lysates precipitated with anti-Flag or anti-HA antibody and protein A/G beads, western blot
T1 sequence: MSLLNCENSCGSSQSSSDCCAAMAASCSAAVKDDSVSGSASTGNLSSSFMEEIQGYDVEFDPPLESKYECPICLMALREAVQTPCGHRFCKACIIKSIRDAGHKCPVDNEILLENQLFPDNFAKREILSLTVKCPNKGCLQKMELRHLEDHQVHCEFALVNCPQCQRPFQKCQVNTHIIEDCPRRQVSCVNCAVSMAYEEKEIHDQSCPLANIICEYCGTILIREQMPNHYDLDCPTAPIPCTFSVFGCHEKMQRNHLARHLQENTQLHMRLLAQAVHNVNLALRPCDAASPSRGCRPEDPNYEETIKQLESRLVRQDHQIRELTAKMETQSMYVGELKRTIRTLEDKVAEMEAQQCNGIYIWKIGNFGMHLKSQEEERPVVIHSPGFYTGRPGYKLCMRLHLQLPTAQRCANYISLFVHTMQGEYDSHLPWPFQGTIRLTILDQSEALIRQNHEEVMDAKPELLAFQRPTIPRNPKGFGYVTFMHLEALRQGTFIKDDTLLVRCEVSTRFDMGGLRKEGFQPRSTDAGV

[2] = molecular target: Interleukin 1 receptor-associated kinase 1 (endogenous, BMDMs) (mouse (endogenous in BMDMs)) (UniProt Q62406); assay: co-IP; endogenous proteins in lysates of murine BMDMs, with or without LPS (100 ng/ml), WT or MVP-deficient cells; antibody (anti-TRAF6) at 4 °C overnight, protein A/G beads, western blot
[3] = molecular target: Major vault protein (endogenous, murine macrophages) (mouse (endogenous in BMDMs)) (UniProt Q9EQK5); assay: co-sedimentation; cell fractionation of macrophages by ultracentrifugation: post-nuclear supernatant (20,000g) spun at 100,000g for 1 h, vault pellet (P fraction) and supernatant (S fraction) blotted; with or without LPS
[4] = molecular target: IRAK1 in HEK293T cells (UniProt Q62406); assay: co-IP; HEK293T cells transfected with tagged constructs; lysates precipitated with anti-Flag or anti-HA antibody and protein A/G beads, western blot
[5] = molecular target: Flag-tagged MVP, full length (UniProt Q9EQK5); assay: co-sedimentation; cell fractionation by ultracentrifugation (100,000g pellet) of HEK293T cells co-transfected with Flag-MVP and HA-TRAF6
[6] = molecular target: Flag-tagged MVP, full length (UniProt Q9EQK5); assay: co-IP; HEK293T cells transfected with tagged constructs; lysates precipitated with anti-Flag or anti-HA antibody and protein A/G beads, western blot

Flag-tagged MVP-(481–685) (from UniProt Q9EQK5 481-685) (domain or fragment)
binding [1]: binds

Flag-tagged MVP-(1–480) (from UniProt Q9EQK5 1-480) (domain or fragment)
binding [1]: binds

B1: TNF receptor-associated factor 6 (endogenous, murine macrophages) (protein, UniProt P70196 1-530)
chain: MSLLNCENSCGSSQSSSDCCAAMAASCSAAVKDDSVSGSASTGNLSSSFMEEIQGYDVEFDPPLESKYECPICLMALREAVQTPCGHRFCKACIIKSIRDAGHKCPVDNEILLENQLFPDNFAKREILSLTVKCPNKGCLQKMELRHLEDHQVHCEFALVNCPQCQRPFQKCQVNTHIIEDCPRRQVSCVNCAVSMAYEEKEIHDQSCPLANIICEYCGTILIREQMPNHYDLDCPTAPIPCTFSVFGCHEKMQRNHLARHLQENTQLHMRLLAQAVHNVNLALRPCDAASPSRGCRPEDPNYEETIKQLESRLVRQDHQIRELTAKMETQSMYVGELKRTIRTLEDKVAEMEAQQCNGIYIWKIGNFGMHLKSQEEERPVVIHSPGFYTGRPGYKLCMRLHLQLPTAQRCANYISLFVHTMQGEYDSHLPWPFQGTIRLTILDQSEALIRQNHEEVMDAKPELLAFQRPTIPRNPKGFGYVTFMHLEALRQGTFIKDDTLLVRCEVSTRFDMGGLRKEGFQPRSTDAGV
binding [2]: binds | binding [3]: binds

B2: HA-tagged C-terminal fragment of TRAF6 (332–530) (domain or fragment, UniProt P70196 332-530)
chain: SMYVGELKRTIRTLEDKVAEMEAQQCNGIYIWKIGNFGMHLKSQEEERPVVIHSPGFYTGRPGYKLCMRLHLQLPTAQRCANYISLFVHTMQGEYDSHLPWPFQGTIRLTILDQSEALIRQNHEEVMDAKPELLAFQRPTIPRNPKGFGYVTFMHLEALRQGTFIKDDTLLVRCEVSTRFDMGGLRKEGFQPRSTDAGV
binding [4]: binds

B3: HA-tagged TRAF6 (protein, UniProt P70196 1-530)
chain: MSLLNCENSCGSSQSSSDCCAAMAASCSAAVKDDSVSGSASTGNLSSSFMEEIQGYDVEFDPPLESKYECPICLMALREAVQTPCGHRFCKACIIKSIRDAGHKCPVDNEILLENQLFPDNFAKREILSLTVKCPNKGCLQKMELRHLEDHQVHCEFALVNCPQCQRPFQKCQVNTHIIEDCPRRQVSCVNCAVSMAYEEKEIHDQSCPLANIICEYCGTILIREQMPNHYDLDCPTAPIPCTFSVFGCHEKMQRNHLARHLQENTQLHMRLLAQAVHNVNLALRPCDAASPSRGCRPEDPNYEETIKQLESRLVRQDHQIRELTAKMETQSMYVGELKRTIRTLEDKVAEMEAQQCNGIYIWKIGNFGMHLKSQEEERPVVIHSPGFYTGRPGYKLCMRLHLQLPTAQRCANYISLFVHTMQGEYDSHLPWPFQGTIRLTILDQSEALIRQNHEEVMDAKPELLAFQRPTIPRNPKGFGYVTFMHLEALRQGTFIKDDTLLVRCEVSTRFDMGGLRKEGFQPRSTDAGV
binding [5]: binds | binding [6]: binds | binding [4]: binds

B4: TRAF2 (endogenous, macrophages) (protein, UniProt P39429 1-501)
chain: MAAASVTSPGSLELLQPGFSKTLLGTRLEAKYLCSACKNILRRPFQAQCGHRYCSFCLTSILSSGPQNCAACVYEGLYEEGISILESSSAFPDNAARREVESLPAVCPNDGCTWKGTLKEYESCHEGLCPFLLTECPACKGLVRLSEKEHHTEQECPKRSLSCQHCRAPCSHVDLEVHYEVCPKFPLTCDGCGKKKIPRETFQDHVRACSKCRVLCRFHTVGCSEMVETENLQDHELQRLREHLALLLSSFLEAQASPGTLNQVGPELLQRCQILEQKIATFENIVCVLNREVERVAVTAEACSRQHRLDQDKIEALSNKVQQLERSIGLKDLAMADLEQKVSELEVSTYDGVFIWKISDFTRKRQEAVAGRTPAIFSPAFYTSRYGYKMCLRVYLNGDGTGRGTHLSLFFVVMKGPNDALLQWPFNQKVTLMLLDHNNREHVIDAFRPDVTSSSFQRPVSDMNIASGCPLFCPVSKMEAKNSYVRDDAIFIKAIVDLTGL
binding [3]: no binding

B5: TRAF3 (endogenous, macrophages) (protein, UniProt Q60803 1-567)
chain: MESSKKMDAAGTLQPNPPLKLQPDRGAGSVLVPEQGGYKEKFVKTVEDKYKCEKCRLVLCNPKQTECGHRFCESCMAALLSSSSPKCTACQESIIKDKVFKDNCCKREILALQVYCRNEGRGCAEQLTLGHLLVHLKNECQFEELPCLRADCKEKVLRKDLRDHVEKACKYREATCSHCKSQVPMIKLQKHEDTDCPCVVVSCPHKCSVQTLLRSELSAHLSECVNAPSTCSFKRYGCVFQGTNQQIKAHEASSAVQHVNLLKEWSNSLEKKVSLLQNESVEKNKSIQSLHNQICSFEIEIERQKEMLRNNESKILHLQRVIDSQAEKLKELDKEIRPFRQNWEEADSMKSSVESLQNRVTELESVDKSAGQAARNTGLLESQLSRHDQMLSVHDIRLADMDLRFQVLETASYNGVLIWKIRDYKRRKQEAVMGKTLSLYSQPFYTGYFGYKMCARVYLNGDGMGKGTHLSLFFVIMRGEYDALLPWPFKQKVTLMLMDQGSSRRHLGDAFKPDPNSSSFKKPTGEMNIASGCPVFVAQTVLENGTYIKDDTIFIKVIVDTSDLPDP
binding [3]: no binding
